Inconclusive means that the source gave no clear call. Such entries were picked first, then a sample of the others. Potencies beside an inconclusive call are fits to weak or partial responses and may not hold up. The source made the active and inactive calls. Calls follow the shape of the full dose curve.
Test: Confirmatory qHTS for Vero E6 cytotoxicity: counterscreen for inhibitors of SARS-S pseudo-typed particle cell entry
Settings: cell viability; series mostly up to 57.1 µM; activity change, negative = cytotoxicity: at the top concentration

Row | Structure (SMILES) | activity change, negative = cytotoxicity | Potency
1 | Nc1ccn([C@@H]2O[C@H](CO)[C@@H](O)C2(F)F)c(=O)n1 | inactive: 0% | –
2 | CC[C@@]1(O)C(=O)OCc2c1cc1n(c2=O)Cc2c-1nc1ccccc1c2/C=N/OC(C)(C)C | – | active: 17.1 µM
3 | CN1CCN(CCC=C2c3ccccc3Sc3ccc(S(=O)(=O)N(C)C)cc32)CC1 | – | inconclusive: 42.9 µM [cytotoxic, single point]
4 | CC(=O)[C@]1(O)Cc2c(O)c3c(c(O)c2[C@@H](O[C@H]2C[C@H](N)[C@H](O)[C@H](C)O2)C1)C(=O)c1ccccc1C3=O | – | inconclusive: 27.1 µM [cytotoxic, single point]
5 | COc1cccc2c1C(=O)c1c(O)c3c(c(O)c1C2=O)C[C@@](O)(C(=O)CO)CC3OC1CC(N2CCOC(OC)C2)C(O)C(C)O1 (stereo partly specified) | – | inconclusive: 0.0607 µM [cytotoxic, full curve]
6 | O=c1c(C2CC(c3ccc(-c4ccc(Br)cc4)cc3)Cc3ccccc32)c(O)sc2ccccc12 (stereo unspecified) | – | inconclusive: 42.9 µM [cytotoxic, single point]
7 | COc1cc(NS(C)(=O)=O)ccc1Nc1c2ccccc2nc2ccccc12 | – | active: 12.1 µM
8 | CO[C@@]12[C@H](COC(N)=O)C3=C(C(=O)C(C)=C(N)C3=O)N1C[C@@H]1N[C@@H]12 | – | inconclusive: 42.9 µM [cytotoxic, single point]
9 | N/C(=N\N=C\c1ccc(Cl)cc1)N/N=C/c1ccc(Cl)cc1 | – | inconclusive: 19.2 µM [cytotoxic, partial curve, poor fit]
10 | CN(C)CC/C=C1\c2ccccc2Sc2ccc(Cl)cc21 | – | inconclusive: 48.2 µM [cytotoxic, partial curve, poor fit]
11 | COc1cccc2c1C(=O)c1c(O)c3c(c(O)c1C2=O)C[C@@](O)(C(=O)CO)C[C@@H]3O[C@H]1C[C@H](N)[C@@H](O)[C@H](C)O1 | – | inconclusive: 34.1 µM [cytotoxic, single point]
12 | C[C@]12CC[C@H](O)C[C@H]1CCC1C2CC[C@]2(C)[C@@H](c3ccc(=O)oc3)C[C@H]3O[C@]132 (stereo partly specified) | – | inconclusive: 13.6 µM [cytotoxic, full curve]
13 | C=CC(=O)Nc1cc(Nc2nccc(-c3cn(C)c4ccccc34)n2)c(OC)cc1N(C)CCN(C)C | – | active: 13.6 µM
14 | CNCCCC12CCC(c3ccccc31)c1ccccc12 | inactive: -14.6% | –
15 | COC(=O)C[C@](O)(CCCC(C)(C)O)C(=O)O[C@@H]1C(OC)=C[C@]23CCCN2CCc2cc4c(cc2[C@H]13)OCO4 | – | inconclusive: 0.607 µM [cytotoxic, full curve]
16 | CCCCCCCCCCCCCC[n+]1ccc(C)cc1 | – | active: 4.29 µM

Row | Structure (SMILES) | activity change, negative = cytotoxicity | Potency
17 | CC(=O)Oc1ccccc1C(=O)Nc1ncc([N+](=O)[O-])s1 | – | active: 9.61 µM
18 | c1ccc2c(c1)Sc1ccccc1N2CC1CN2CCC1CC2 (stereo unspecified) | – | inconclusive: 30.4 µM [cytotoxic, single point]
19 | CC(C)(C)NCC(O)COc1ccccc1C1CCCC1 (stereo unspecified) | inactive: -11.2% | –
20 | CC(C)(C)c1ccc(C(=O)CCCN2CCC(OC(c3ccccc3)c3ccccc3)CC2)cc1 | – | inconclusive: 42.9 µM [cytotoxic, single point]
21 | C[n+]1c2cc(N)ccc2cc2ccc(N)cc21 (tested in a mixture with another compound) | – | active: 10.8 µM
22 | COc1ccc2cc1Oc1ccc(cc1)C[C@H]1c3c(cc4c(c3Oc3cc5c(cc3OC)CCN(C)[C@@H]5C2)OCO4)CCN1C | – | inconclusive: 42.9 µM [cytotoxic, single point]
23 | C=C(C)[C@H]1Cc2c(ccc3c2O[C@@H]2COc4cc(OC)c(OC)cc4[C@@H]2C3=O)O1 | – | inconclusive: 0.121 µM [cytotoxic, full curve, poor fit]
24 | O=C(Nc1ccc(Cl)cc1)Nc1ccc(Cl)c(C(F)(F)F)c1 | – | inconclusive: 34.1 µM [cytotoxic, single point]
25 | CC(C)C[C@H](NC(=O)[C@H](CCc1ccccc1)NC(=O)CN1CCOCC1)C(=O)N[C@@H](Cc1ccccc1)C(=O)N[C@@H](CC(C)C)C(=O)[C@@]1(C)CO1 | – | active: 0.681 µM
26 | CC[C@@H]([C@H](C)O)n1ncn(-c2ccc(N3CCN(c4ccc(OC[C@@H]5CO[C@@](Cn6cncn6)(c6ccc(F)cc6F)C5)cc4)CC3)cc2)c1=O | – | inconclusive: 42.9 µM [cytotoxic, single point]
27 | COc1cc2c(cc1Cc1cccc(Cl)c1F)c(=O)c(C(=O)O)cn2[C@H](CO)C(C)C | inactive: 0% | –
28 | O=C1c2c(O)ccc(O)c2C(=O)c2c(NCCNCCO)ccc(NCCNCCO)c21 | – | inconclusive: 21.5 µM [cytotoxic, partial curve, poor fit]
29 | NCCNc1ccc(NCCN)c2c1C(=O)c1ccncc1C2=O | – | inconclusive: 19.2 µM [cytotoxic, partial curve]
30 | C[C@@H](c1nc(-c2ccc(C#N)cc2)cs1)[C@](O)(Cn1cncn1)c1cc(F)ccc1F | – | inconclusive: 42.9 µM [cytotoxic, single point]
31 | Cc1nnc(C(=O)NC(C)(C)c2nc(C(=O)NCc3ccc(F)cc3)c(O)c(=O)n2C)o1 | inactive: 3.68% | –

From no. 27 as far as 29, copied from above:
Row | Structure (SMILES) | activity change, negative = cytotoxicity | Potency
27 | COc1cc2c(cc1Cc1cccc(Cl)c1F)c(=O)c(C(=O)O)cn2[C@H](CO)C(C)C | inactive: 0% | –
28 | O=C1c2c(O)ccc(O)c2C(=O)c2c(NCCNCCO)ccc(NCCNCCO)c21 | – | inconclusive: 21.5 µM [cytotoxic, partial curve, poor fit]
29 | NCCNc1ccc(NCCN)c2c1C(=O)c1ccncc1C2=O | – | inconclusive: 19.2 µM [cytotoxic, partial curve]

Reference: PubChem BioAssay AID1479144 (National Center for Advancing Translational Sciences (NCATS), 2020)
